System: HRV-14
Assay: Antirhinoviral HI-HeLa Cell Culture Assay (Cell Protection Assay, XTT dye reduction)
Assay type: cell-based, human rhinovirus (HRV) serotype-14
Conditions: therapeutic index = CC50 divided by EC50; HRV-14, HI-HeLa
Method: In the Cell Protection Assay, the ability of compounds to protect cells against HRV infection was measured by the XTT dye reduction method. This method is described in Weislow, O. S., R. Kiser, D. L. Fine, J. Bader, R. H. Shoemaker, and M. R. Boyd, J. Natl. Cancer Inst. 1989, 81, 577-586, which is incorporated herein by reference.
HI-HeLa cells were infected with HRV-14 at a multiplicity of infection (m.o.i.) of 0.13 (virus particles/cell) or mock-infected with medium only. Infected or mock-infected cells were resuspended at 8×10^5 cells per mL and incubated with appropriate concentration of compounds of formulas I and II. Two days later, XTT/PMS was added to test plates and the amount of formazan produced was quantified spectrophotometrically at 450/650 nm. […] The therapeutic index (TI) was calculated by dividing the CC50 by the EC50.
All strains of human rhinovirus (HRV) for use in this assay were purchased from American Type Culture Collection (ATCC), except for HRV serotype-14, which was produced from the infectious cDNA clone, constructed and supplied to us by Dr. Roland Rueckert at the Institue for Molecular Virology, University of Wisconsin, Madison, Wisc. HRV stocks were propagated, and antiviral assays were perforemd in HI-HeLa cells (ATCC). Cells were grwon in Minimal Essential Medium, available from Life Technologies, with 10% fetal bovine serum. […]

Question: For `CCOC(=O)c1ccc(OCCC2CCN(c3ccc(C)nn3)CC2)cc1` [Pirodavir, reference compound], which TI is on record?
Answer: Its TI is >300.
